# Experimental data published in patent publication EP1268431B1 (Wyeth, priority 2000, dated 2001).
# Not every entry of the source has a single result; some have several. This list holds those alone. An entry can have further records. Values that stand side by side do not match, cause unknown; some may be repeats, others may stem from another dose, organism or construct than stated.
# What was measured:
# [1] = system: Rat2 fibroblasts stably transformed with a plasmid containing a CMV promotor controlled v-Src/Hu c-Src fusion gene; conditions: read-out: anch-indep src-tx fib IC50; suspension growth, MTS on Day 5
# [2] = system: human adenocarcinoma cell line CaCo-2; test: Cell Based Screen for Inhibitors of Raf Kinase, CaCo-2 cells; conditions: read-out: CaCo-2 IC50; CaCo-2, four days, SRB
IC50 [2],Structure (SMILES),IC50 [1]
,COc1cc(Nc2c(C#N)cnc3cc(/C=C/c4ccncc4)ccc23)c(Cl)cc1Cl,"270 nM, 190 nM, 130 nM"
1.9 µM and 780 nM,"Cn1ccnc1Sc1ccc(Nc2c(C#N)cnc3cc(-c4csc(CN5CCOCC5)c4)ccc23)cc1Cl [Example 33, 4-{3-Chloro-4-[(1-methyl-1H-imidazol-2-yl)sulfanyl]anilino}-7-[5-(4-morpholinylmethyl)-3-thienyl]-3-quinolinecarbonitrite]",
